Measurements taken from ChEMBL document CHEMBL6078728 (Bioorg Med Chem, 2025).

Key:
[1] = physchem; settings: buffer, pH 1.2
[2] = physchem; settings: buffer, pH 6.8
[3] = in vitro; settings: PAMPA, pH 6.5

For `Cc1c(N[C@@H]2CCCC[C@H]2O)nnc(-c2ccc(C(F)(F)F)cc2O)c1C`, the solubility at 20 h [1] was ≥ 100 µM, the solubility at 20 h [2] was ≥ 100 µM and the Papp at 2 h [3] was 14.5 ×10⁻⁶ cm/s.
